This passage reports cell number change and AC50 results from PubChem BioAssay AID2685 (National Center for Advancing Translational Sciences (NCATS), 2010).

What is called AC50 is the midpoint of the concentration-response curve, whichever way the signal moves.

The nature of this test: qHTS Assay for Lipid Storage Modulators in Drosophila S3 Cells.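 As to cell number change: cells counted by Cell Tracker Red CMTPX staining in the red channel.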 Conditions: BODIPY lipid droplet fluorescence, 18-24 h; for cell number change: measured here: cell count max response, cells fed with added oleic acid. The method in brief: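 Drosophila S3 cells got compounds at several concentrations plus oleic acid (400 uM solution). Laser-scanning cytometry with 488 nm excitation read lipid droplets at 500-530 nm and cells at 575-640 nm. Percent activity was relative to 20 uM Triacsin C.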
On the technique in general: qHTS replaces the single test concentration by a dilution series.

Where [1] appears, read: measured here: cell number channel AC50, cells fed with added oleic acid.
The mark [2] stands for this setting: measured here: lipid fluorescence (Fed channel) AC50, cells fed with added oleic acid.

Some of the results follow. Shown are side measurements of this screen, not its main read-out; they come without a call. Compounds called inactive in the main read-out are mostly missing here. Potencies come from curve fits of mixed quality, noted in brackets.

`CC(Sc1nnc2ccccn12)C(=O)N1CCc2ccccc2C1` (stereo not drawn): the cell number change amounted to 57.1%. Further, the AC50 under setting [1] is 16.4 µM [rising, single point].

For `CC(C)CN(C(=O)COC(=O)c1cncc(Br)c1)c1c(N)n(Cc2ccccc2)c(=O)[nH]c1=O`, the cell number change was 59.9%. In addition, under setting [1], the AC50 is 28.2 µM [rising, single point].

For the molecule `NS(=O)(=O)c1ccc(NS(=O)(=O)c2ccc(NC(=O)c3ccc(-c4ccccc4)cc3)cc2)cc1`, the cell number change amounted to 11.7%. Further, the AC50 under setting [2] is 29.1 µM [falling, single point].

Regarding `CCc1nnc(NC(=O)CSc2nnc(-c3cccnc3)n2C)s1`, the cell number change is -24.9%. In addition, the AC50 under setting [1] was 0.146 µM [falling, full curve]. For the same molecule, the AC50 under setting [2] was 3.26 µM [falling, partial curve, poor fit].

As to `CCOC(=O)NC(=S)Nc1c(C)n(C)n(-c2ccccc2)c1=O`, the cell number change is -28.6%. For the same molecule, the AC50 under setting [1] was 0.398 µM [falling, full curve, poor fit]. Further, the AC50 under setting [2] is 0.501 µM [falling, full curve, poor fit].

Regarding `Cc1ccc(CNC(=O)CCC(=O)c2cccs2)cc1`, the cell number change is -12.6%. Further, the half-maximal activity concentration (AC50) under setting [2] was 0.13 µM [falling, full curve, poor fit].

Regarding `CC(Sc1nncn1C)C(=O)Nc1nnc(-c2ccccc2)s1` (stereo not drawn), the cell number change amounted to 21.6%. Also, the AC50 under setting [2] was 13 µM [rising, single point].

Consider `CCCCN1C(=O)c2ccc(C(=O)NC3(C)CCS(=O)(=O)C3)cc2C1=O` (stereo not drawn), for which the cell number change was found to be 36.3%. For the same molecule, the AC50 under setting [1] was 0.731 µM [rising, full curve, poor fit].

On to `CCNc1ccc(C(=O)OC(C(=O)NC(N)=O)C(C)C)cc1[N+](=O)[O-]` (stereo not drawn), for which the cell number change is -21.3%.

For `COc1ccc2cc(C(=O)N3CCc4ccccc43)[nH]c2c1`, the cell number change amounted to 38.7%. In addition, the AC50 under setting [1] is 32.6 µM [rising, single point]. Besides, under setting [2], the AC50 is 29.1 µM [rising, single point].

With `CCOc1ccc(NC(=O)CN(C)S(=O)(=O)c2ccc(-c3ccc(=O)[nH]n3)s2)cc1`, the cell number change turned out to be 74.9%. Further, the AC50 under setting [1] was 23.1 µM [rising, partial curve]. The AC50 under setting [2] was 20.6 µM [rising, partial curve].

Take `CCCCn1c(N)c(N(C)C(=O)c2cc3c(s2)CCCCC3)c(=O)[nH]c1=O`: the cell number change came out at 9.63%. Moreover, the AC50 under setting [2] is 2.06 µM [rising, partial curve].

`Cn1cccc1CNC(=S)Nc1ccccc1F`: the cell number change is -12.6%.

Turning to `O=S(=O)(c1ccc(NCCc2c[nH]c3ccccc23)nc1)N1CCOCC1`, the cell number change is -13%. Besides, under setting [2], the concentration at half-maximal activity (AC50) was 0.82 µM [rising, single point].

`CCCC(O)(CCC)C(=O)NN(C(=O)CCl)c1ccccc1`: the cell number change is -13.2%. In addition, under setting [2], the concentration at half-maximal activity (AC50) is 16.4 µM [falling, partial curve].

Regarding `O=C(CN1CCN(c2ccccn2)CC1)Nc1ccc(F)cc1`, the AC50 was 4.11 µM [rising, single point] under setting [1] and 32.6 µM [rising, single point] under setting [2].

Regarding `CC(OC(=O)CCSc1ccccc1)C(=O)Nc1ccc(S(N)(=O)=O)cc1` (stereo not drawn), the cell number change is -35.6%. Also, the AC50 under setting [1] was 3.66 µM [falling, full curve]. The AC50 under setting [2] was 23.1 µM [falling, single point].

`CCCCn1c(N)c(N(CC(C)C)C(=O)c2ccc(Br)s2)c(=O)[nH]c1=O`: the cell number change was -33.8%. For the same molecule, the AC50 under setting [1] was 12.6 µM [falling, single point]. Further, the AC50 under setting [2] is 11.2 µM [falling, partial curve].

As to `CC(=O)NC1(C(F)(F)F)C(=O)Nc2c1c(=O)[nH]c(=O)n2CCc1ccccc1` (stereo not drawn), the cell number change was -27.6%. Besides, under setting [2], the AC50 was 5.8 µM [falling, full curve].

Regarding `CC(=O)Nc1ccc(S(=O)(=O)NCc2nc(-c3ccccc3C)no2)cc1`, the cell number change came out at 13.9%. In addition, the AC50 under setting [2] is 29.1 µM [rising, partial curve, poor fit].

With `Cc1ccc(S(=O)(=O)N2CCCC2C(=O)NC2=NCCS2)cc1` (stereo not drawn), the cell number change was -0.967%. Under setting [1], the AC50 is 0.00517 µM [falling, full curve, poor fit]. The concentration at half-maximal activity (AC50) under setting [2] was 14.6 µM [falling, single point].

Turning to `N#Cc1ccc(CN2CCN(CC(=O)Nc3ccccc3C(=O)NC3CC3)CC2)cc1`, the cell number change was 0.376%. For the same molecule, under setting [2], the AC50 was 6.51 µM [rising, partial curve].

Consider `CC(Sc1nnc(Nc2ccccc2)s1)C(=O)Nc1nc(-c2ccccc2)cs1` (stereo not drawn), for which the cell number change is -44.1%.

Regarding `COc1ccccc1CC(=O)c1ccc(OCc2ccccc2)cc1`, the cell number change was -21%. Further, under setting [2], the half-maximal activity concentration (AC50) was 0.00651 µM [rising, full curve, poor fit].

Consider `CC(=O)N[C@@H](C)C(=O)N1CCN(S(=O)(=O)c2ccc(Cl)cc2)CC1`, for which the cell number change was 7.61%.

As to `Nc1c2c(nc3ccc(Br)cc13)N(C1CCCCC1)CC2`, the cell number change was -56%. Also, the AC50 under setting [2] is 29.1 µM [falling, single point].

In the case of `CC(=O)N1CCN(S(=O)(=O)c2ccc(S(=O)(=O)NC3CCCCC3)cc2)CC1`, the cell number change was found to be 14%. Moreover, under setting [1], the AC50 is 0.366 µM [rising, full curve, poor fit]. Besides, under setting [2], the AC50 was 11.6 µM [falling, single point].

In the case of `Cc1ccc2[nH]c3c(N4CCc5ccccc5C4)ncnc3c2c1`, the cell number change was -67.4%. In addition, under setting [1], the AC50 was 11.6 µM [falling, partial curve].

Consider `CCCn1c2ccccc2c2nnc(SC(CC)C(=O)Nc3sc4c(c3C#N)CCCC4)nc21` (stereo not drawn), for which the cell number change is 60%. Moreover, under setting [1], the AC50 is 4.11 µM [rising, full curve]. Further, the AC50 under setting [2] is 7.31 µM [rising, partial curve].

On to `O=S1(=O)NC(=NCCc2ccccn2)c2ccccc21`, for which the cell number change was -35.2%. The AC50 under setting [1] is 9.2 µM [falling, partial curve, poor fit]. Also, under setting [2], the AC50 is 25.9 µM [falling, single point].

As to `Cc1cccc(NC(=S)N2CCC(N(C)CC3CCCO3)CC2)c1` (stereo not drawn), the cell number change turned out to be 45.3%. Besides, the AC50 under setting [1] was 8.2 µM [rising, partial curve]. Moreover, the AC50 under setting [2] was 8.2 µM [rising, partial curve].

Take `O=C(N/N=C/c1coc2ccc(Cl)cc2c1=O)c1ccc(O)cc1`: the cell number change was -30.7%. For the same molecule, the concentration at half-maximal activity (AC50) under setting [1] was 23.1 µM [falling, single point].

As for `CCN(Cc1ccccc1)C(=O)c1ccccc1C`, the cell number change was -11.5%. The AC50 under setting [2] is 1.46 µM [falling, partial curve].

For the molecule `N#CCc1ccc(OC(=O)Nc2ccccc2)cc1`, the cell number change is -0.874%. Further, the concentration at half-maximal activity (AC50) under setting [2] was 1.16 µM [falling, full curve, poor fit].

As for `O=C(Nc1ccc(F)cc1F)c1ccco1`, the cell number change is -53.2%. In addition, the half-maximal activity concentration (AC50) under setting [1] was 29.1 µM [falling, single point]. In addition, the AC50 under setting [2] is 0.259 µM [falling, full curve, poor fit].
